Source: PMC6362814
These are yes or no findings as the source states them, for the method shown. Binding seen in cells or lysates may run through a third protein. Some results given as binding are weak or reduced against the parent protein; the word gives no strength.

Chains of the proteins cited; added tags and fusions are not shown.
UniProt Q9QZQ1: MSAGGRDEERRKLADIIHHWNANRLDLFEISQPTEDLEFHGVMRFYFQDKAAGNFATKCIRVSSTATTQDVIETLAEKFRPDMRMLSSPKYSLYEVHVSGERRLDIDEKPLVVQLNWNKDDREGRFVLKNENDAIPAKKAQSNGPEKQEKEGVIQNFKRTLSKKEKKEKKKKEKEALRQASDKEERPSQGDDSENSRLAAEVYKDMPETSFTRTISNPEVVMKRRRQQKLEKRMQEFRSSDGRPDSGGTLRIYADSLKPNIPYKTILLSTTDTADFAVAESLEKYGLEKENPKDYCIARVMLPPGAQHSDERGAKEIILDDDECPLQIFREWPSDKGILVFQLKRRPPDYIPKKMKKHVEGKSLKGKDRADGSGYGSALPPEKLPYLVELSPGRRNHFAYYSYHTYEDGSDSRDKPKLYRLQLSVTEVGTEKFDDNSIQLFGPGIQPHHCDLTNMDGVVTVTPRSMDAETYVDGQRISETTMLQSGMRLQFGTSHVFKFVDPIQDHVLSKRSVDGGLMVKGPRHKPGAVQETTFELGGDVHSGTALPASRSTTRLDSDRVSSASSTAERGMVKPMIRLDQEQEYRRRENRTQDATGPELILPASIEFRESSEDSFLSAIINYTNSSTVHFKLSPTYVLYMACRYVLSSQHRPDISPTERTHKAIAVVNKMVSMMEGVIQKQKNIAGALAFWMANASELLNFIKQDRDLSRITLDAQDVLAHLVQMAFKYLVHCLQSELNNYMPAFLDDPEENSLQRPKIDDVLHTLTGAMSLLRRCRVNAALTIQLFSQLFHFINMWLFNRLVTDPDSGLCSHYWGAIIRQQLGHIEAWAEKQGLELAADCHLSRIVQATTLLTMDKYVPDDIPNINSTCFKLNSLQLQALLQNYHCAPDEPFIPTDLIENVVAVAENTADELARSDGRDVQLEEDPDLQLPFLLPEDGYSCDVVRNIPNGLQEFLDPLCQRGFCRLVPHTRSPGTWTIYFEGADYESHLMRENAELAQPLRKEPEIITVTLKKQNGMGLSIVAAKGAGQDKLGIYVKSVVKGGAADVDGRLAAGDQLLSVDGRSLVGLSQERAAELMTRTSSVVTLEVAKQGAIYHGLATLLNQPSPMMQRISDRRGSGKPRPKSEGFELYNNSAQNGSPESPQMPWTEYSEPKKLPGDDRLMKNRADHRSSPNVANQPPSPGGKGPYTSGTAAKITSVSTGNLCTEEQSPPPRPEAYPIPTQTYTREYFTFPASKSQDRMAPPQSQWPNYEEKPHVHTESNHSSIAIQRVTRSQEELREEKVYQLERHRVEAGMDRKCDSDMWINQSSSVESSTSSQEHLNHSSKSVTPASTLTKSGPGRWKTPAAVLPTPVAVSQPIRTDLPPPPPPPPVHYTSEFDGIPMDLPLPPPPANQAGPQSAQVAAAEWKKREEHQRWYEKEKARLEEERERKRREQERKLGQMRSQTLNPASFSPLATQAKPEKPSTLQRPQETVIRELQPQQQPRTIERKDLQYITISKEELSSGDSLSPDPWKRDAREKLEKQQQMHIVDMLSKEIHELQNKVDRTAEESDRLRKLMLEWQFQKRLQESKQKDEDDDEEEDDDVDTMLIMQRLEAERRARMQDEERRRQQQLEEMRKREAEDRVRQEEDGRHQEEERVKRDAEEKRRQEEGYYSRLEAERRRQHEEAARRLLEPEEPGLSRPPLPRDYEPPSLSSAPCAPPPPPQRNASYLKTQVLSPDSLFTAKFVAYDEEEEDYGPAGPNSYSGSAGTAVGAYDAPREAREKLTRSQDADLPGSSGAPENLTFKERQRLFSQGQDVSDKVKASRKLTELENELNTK

Biological target: T1, Claudin-2 (mouse, endogenous in 2776 cells) (mouse (endogenous in 4T1-derived 2776 cells)) (UniProt O88552)
T1 sequence: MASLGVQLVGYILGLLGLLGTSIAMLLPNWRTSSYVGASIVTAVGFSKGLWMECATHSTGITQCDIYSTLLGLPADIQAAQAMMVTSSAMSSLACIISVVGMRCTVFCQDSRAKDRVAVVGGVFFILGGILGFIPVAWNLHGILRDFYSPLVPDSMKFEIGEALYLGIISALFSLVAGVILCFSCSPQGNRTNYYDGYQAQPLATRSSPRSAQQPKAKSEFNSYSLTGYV
Experiment: co-IP; whole-cell lysates of 2776 liver-aggressive 4T1 cells; reciprocal immunoprecipitation of Claudin-2 and Afadin; immunoblot

binding: binds
Substance: Afadin (mouse, endogenous in 2776 cells) (from UniProt Q9QZQ1 1-1820)
